This passage reports binding results from paper PMC5021921.

Chains of the proteins cited; added tags and fusions are not shown.
UniProt Q09472: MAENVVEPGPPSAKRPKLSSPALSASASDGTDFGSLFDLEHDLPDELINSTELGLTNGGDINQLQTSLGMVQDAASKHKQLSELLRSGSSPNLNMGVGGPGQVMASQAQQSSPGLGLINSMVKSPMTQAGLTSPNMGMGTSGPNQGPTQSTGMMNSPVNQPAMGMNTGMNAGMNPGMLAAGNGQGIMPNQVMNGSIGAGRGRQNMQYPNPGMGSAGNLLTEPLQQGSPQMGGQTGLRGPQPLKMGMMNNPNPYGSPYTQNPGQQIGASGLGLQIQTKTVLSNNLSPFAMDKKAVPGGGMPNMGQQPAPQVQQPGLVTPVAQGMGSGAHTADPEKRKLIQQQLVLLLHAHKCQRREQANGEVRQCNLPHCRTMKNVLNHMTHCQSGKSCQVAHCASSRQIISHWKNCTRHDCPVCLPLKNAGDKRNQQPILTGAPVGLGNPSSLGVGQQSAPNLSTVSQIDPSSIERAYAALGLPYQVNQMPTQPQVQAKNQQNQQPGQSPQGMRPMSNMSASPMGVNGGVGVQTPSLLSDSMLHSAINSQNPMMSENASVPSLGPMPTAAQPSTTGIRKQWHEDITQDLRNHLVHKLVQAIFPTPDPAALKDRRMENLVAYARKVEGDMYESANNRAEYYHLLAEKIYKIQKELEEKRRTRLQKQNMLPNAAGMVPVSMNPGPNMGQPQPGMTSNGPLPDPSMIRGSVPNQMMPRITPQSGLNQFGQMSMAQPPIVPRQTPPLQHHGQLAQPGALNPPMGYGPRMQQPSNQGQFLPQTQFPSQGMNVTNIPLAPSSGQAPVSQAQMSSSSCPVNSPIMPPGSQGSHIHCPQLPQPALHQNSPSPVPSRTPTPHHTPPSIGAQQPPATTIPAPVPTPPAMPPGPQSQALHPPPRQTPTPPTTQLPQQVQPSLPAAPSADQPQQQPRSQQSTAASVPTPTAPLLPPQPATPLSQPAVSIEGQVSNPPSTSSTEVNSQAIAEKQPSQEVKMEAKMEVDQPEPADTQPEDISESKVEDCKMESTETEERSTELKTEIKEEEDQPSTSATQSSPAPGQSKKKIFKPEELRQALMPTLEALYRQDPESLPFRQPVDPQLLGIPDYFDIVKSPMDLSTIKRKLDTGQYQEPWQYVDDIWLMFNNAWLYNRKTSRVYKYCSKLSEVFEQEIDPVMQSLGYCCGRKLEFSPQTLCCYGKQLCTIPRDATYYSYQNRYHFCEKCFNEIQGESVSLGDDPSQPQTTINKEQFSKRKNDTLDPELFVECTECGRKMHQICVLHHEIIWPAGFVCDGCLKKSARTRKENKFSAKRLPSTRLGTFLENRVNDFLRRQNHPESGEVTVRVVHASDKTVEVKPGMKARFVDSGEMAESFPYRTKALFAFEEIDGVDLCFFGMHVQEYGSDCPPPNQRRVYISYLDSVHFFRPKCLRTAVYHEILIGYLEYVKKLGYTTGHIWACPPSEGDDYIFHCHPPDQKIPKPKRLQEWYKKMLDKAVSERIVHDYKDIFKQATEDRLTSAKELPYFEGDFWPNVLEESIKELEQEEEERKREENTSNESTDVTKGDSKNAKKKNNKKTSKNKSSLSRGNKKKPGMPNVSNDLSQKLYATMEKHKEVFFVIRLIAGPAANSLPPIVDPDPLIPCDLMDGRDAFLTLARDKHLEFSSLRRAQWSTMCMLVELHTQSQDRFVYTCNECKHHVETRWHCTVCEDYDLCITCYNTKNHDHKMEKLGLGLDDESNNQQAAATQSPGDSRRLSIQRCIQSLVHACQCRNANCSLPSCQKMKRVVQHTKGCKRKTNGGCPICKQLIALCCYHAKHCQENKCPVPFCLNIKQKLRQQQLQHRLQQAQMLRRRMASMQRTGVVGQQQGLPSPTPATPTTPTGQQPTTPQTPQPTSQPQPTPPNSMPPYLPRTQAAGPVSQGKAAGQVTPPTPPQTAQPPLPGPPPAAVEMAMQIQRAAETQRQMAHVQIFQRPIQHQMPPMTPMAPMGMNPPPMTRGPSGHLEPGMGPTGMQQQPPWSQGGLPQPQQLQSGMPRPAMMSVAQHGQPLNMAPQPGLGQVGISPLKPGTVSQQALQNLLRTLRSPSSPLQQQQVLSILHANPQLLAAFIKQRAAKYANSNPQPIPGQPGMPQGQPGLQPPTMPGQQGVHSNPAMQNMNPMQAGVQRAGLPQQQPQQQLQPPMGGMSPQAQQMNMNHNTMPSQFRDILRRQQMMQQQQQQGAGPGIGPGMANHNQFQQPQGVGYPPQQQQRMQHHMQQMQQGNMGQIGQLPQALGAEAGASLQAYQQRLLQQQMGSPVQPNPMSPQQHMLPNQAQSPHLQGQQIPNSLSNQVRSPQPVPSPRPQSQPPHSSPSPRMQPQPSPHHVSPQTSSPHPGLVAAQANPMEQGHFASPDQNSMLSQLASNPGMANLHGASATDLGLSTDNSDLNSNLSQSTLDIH
UniProt Q02080: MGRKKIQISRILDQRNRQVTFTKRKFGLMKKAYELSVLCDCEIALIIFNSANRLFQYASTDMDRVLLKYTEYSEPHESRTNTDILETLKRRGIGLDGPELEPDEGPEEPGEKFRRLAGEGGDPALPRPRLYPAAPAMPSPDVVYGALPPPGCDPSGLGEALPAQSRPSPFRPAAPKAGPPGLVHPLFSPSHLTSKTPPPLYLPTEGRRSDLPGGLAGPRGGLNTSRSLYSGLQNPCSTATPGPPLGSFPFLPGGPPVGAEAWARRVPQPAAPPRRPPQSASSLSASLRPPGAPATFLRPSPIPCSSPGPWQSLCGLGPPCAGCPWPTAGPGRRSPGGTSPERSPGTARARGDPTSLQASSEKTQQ

Results are given in words; binding and its absence hold for the method and conditions named. In cells and extracts the contact can be indirect.

The target in the test is HA-p300 (UniProt Q09472). Nature of the test: co-IP; HeLa cells transfected with HA-p300, treated with 100 ng/ml EGF for 3 h; lysates immunoprecipitated with agarose-conjugated anti-HA antibody, Western blot with anti-MEF2B. In general terms: A western blot detects proteins with antibodies after separation by electrophoresis.

In the case of “myocyte enhancer factor 2B (MEF2B) (from UniProt Q02080 1-365)”, the binding entry is reported as “no binding”.
